# About 13,000 (3.2%) of roughly 400,000 compounds were called active. Inconclusive results, whose numbers are uncertain, are shown with a selection of clear calls. Calls come from the whole dose curve; as a rule, active = well fitted cell-killing curve with a large enough effect; inconclusive = small, poorly fitted or top-dose-only effect, or effect the other way; inactive = flat fitted curve, though single readings scatter. Potencies of inconclusive entries are doubtful fits and often do not repeat.
# Assay: qHTS assay for MDR1-selective chemotherapeutics: Primary screen using the drug-selected MDR subline cells KB-V1; note: nearly all actives have a fitted effect of over 60% in size
# Details: KB-V1 MDR cells viability, CellTiter-Glo, 72 h; series mostly up to 46.1 µM
# Method in brief: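 Following 72 h at 37 degrees C with compound, KB-V1 cell viability was read by CellTiter-Glo luminescence, medium being phenol-red-free DMEM plus 10% FBS; concentration-response parameters came from normalized, curve-fitted qHTS data.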
# Potency is the fitted concentration of half-maximal effect.
row,Structure (SMILES),Potency
1,CCCc1c(NC(=O)Nc2ccc(F)cc2)cnn1-c1ccc(Cl)cc1,"inconclusive: 23.1 µM [cytotoxic, partial curve, poor fit]"
2,COc1ccc(-c2nc(Cn3c(SCc4ccccc4F)nc4ccncc43)c(C)o2)cc1,"inconclusive: 20.6 µM [rising, single point]"
3,CCN1CCN(CCNC(=O)c2ccc(/C=C3\Sc4ccccc4N(Cc4ccccc4F)C3=O)cc2)CC1,"inconclusive: 13 µM [rising, partial curve, poor fit]"
4,CC1=C(C(=O)N(C(C)C)C(C)C)CC(CC(=O)NCCCN(C)C)C(=O)N1CCCN1CCCC1=O (configuration not stated),inactive
5,Cc1cccc(OCCCSc2nc3ccc(C)cc3[nH]2)c1,"inconclusive: 20.6 µM [cytotoxic, single point]"
6,COc1ccc(C=CC(=O)c2ccc(OC)c(OC)c2)cc1O,"inconclusive: 20.6 µM [cytotoxic, single point]"
7,COc1ccc(N2CC(C(=O)N3CCN(Cc4ccc5c(c4)OCO5)CC3)CC2=O)cc1 (configuration not stated),"inconclusive: 8.2 µM [cytotoxic, partial curve]"
8,NC(=O)c1ccc(-c2csnn2)cc1,"inconclusive: 29.1 µM [rising, single point]"
9,Cc1cc(C)nc(SCc2ccc(C(=O)N/N=C/c3cccc(O)c3O)cc2)n1,"inconclusive: 1.03 µM [cytotoxic, full curve, poor fit]"
10,COc1ccc(-c2[nH][nH]c(=O)c2NC(=O)c2ccc([N+](=O)[O-])cc2)cc1,inactive
11,COC(=O)c1ccccc1NC(=S)NC(=O)c1ccc2ccccc2c1,"inconclusive: 0.731 µM [rising, full curve]"
12,COc1ccc(NC(=O)C23CC4CC(C2)CC(c2ccc(C)cc2)(C4)C3)cc1,"inconclusive: 23.1 µM [cytotoxic, single point]"
13,C[C@@H]1CC2=C(C(=O)OC(C)(C)O2)[C@H](c2ccc(Cl)cc2)O1,inactive
14,COc1ccc(CNC(=O)Cn2ncc3c([nH]c4ccccc43)c2=O)cc1,inactive
15,CCN(CC(=O)Nc1ccccc1C(=O)OC)S(=O)(=O)c1ccccc1,inactive
16,CCS(=O)(=O)c1nc(S(=O)(=O)c2ccc(C)cc2)c(N2CCCCCC2)s1,"inconclusive: 5.17 µM [cytotoxic, full curve]"
17,COc1ccc(CNC(=O)c2ccc3oc(C(C)C)nc3c2)cc1,"inconclusive: 29.1 µM [cytotoxic, single point]"
18,Cc1cccc(N2CCN(S(=O)(=O)c3c(C(=O)N4CCCCC4)c(C)n(C)c3C)CC2)c1C,inactive
19,C[C@H]1CN([C@@H](C)CO)C(=O)CCCn2nncc2CO[C@@H]1CN(C)Cc1ccc(Oc2ccccc2)cc1,inactive
20,CNC(=O)/C(C#N)=C/c1c(N2CCN(c3cccc(Cl)c3)CC2)nc2c(C)cccn2c1=O,inactive
21,Cc1ccc(NC(=O)NCCN2CCN(C(=O)Nc3ccc(C)cc3)CC2)cc1,"inconclusive: 0.366 µM [rising, full curve, poor fit]"
22,O=C(COC(=O)CCC(=O)c1cccs1)NCc1ccccc1,inactive
23,O=C(NCc1cccnc1)/C(=C/c1ccc(-c2cccc(Cl)c2)o1)S(=O)(=O)c1ccccc1,"inconclusive: 20.6 µM [cytotoxic, partial curve, poor fit]"

row,Structure (SMILES),Potency
1,COc1ccccc1C=Cc1ccnc2ccccc12,"inconclusive: 18.4 µM [cytotoxic, single point]"
2,CCOc1ccccc1Oc1ccc(C(F)(F)F)cn1,"inconclusive: 29.1 µM [rising, single point]"
3,Cc1cccc(OCc2nnc(SCC(=O)N3c4ccccc4CC3C)n2C)c1C (configuration not stated),"inconclusive: 25.1 µM [cytotoxic, single point]"
4,COc1ccc(NC(=S)NC23CC4CC(CC(C4)C2)C3)cc1OC,"inconclusive: 23.1 µM [cytotoxic, single point]"
5,CC1(C(=O)Nc2ccc3c(c2)OCCO3)CCN1C(=O)c1ccccc1CCc1ccccc1 (configuration not stated),"inconclusive: 29.1 µM [cytotoxic, single point]"
6,CCC(=O)c1cc2c(C)cc(=O)oc2c(C)c1OC,"inconclusive: 20.6 µM [cytotoxic, single point]"
7,CCOC(=O)C[C@@H]1OC[C@H](C)N1S(=O)(=O)c1ccc(C)cc1,"inconclusive: 14.6 µM [cytotoxic, partial curve, poor fit]"
8,C=CCn1c(SCc2c(C)noc2C)nc2cc(C(=O)O)ccc2c1=O,"inconclusive: 29.1 µM [cytotoxic, single point]"
9,Cc1nnc(SCC(=O)N2CCN(C(=O)c3ccco3)CC2)n1C,"inconclusive: 23.1 µM [rising, partial curve, poor fit]"
10,COC(=O)c1ccccc1NC(=O)N1c2ccccc2CC1C (configuration not stated),active: 23.1 µM
11,COc1cccc(N(CC(=O)Nc2ccc3c(c2)OCO3)S(=O)(=O)c2ccccc2)c1,active: 16.4 µM
12,Cc1ccc(NC(=O)c2cc(C)n(-c3cccc(C)c3)c2C)cc1,"inconclusive: 20.6 µM [cytotoxic, partial curve, poor fit]"
13,NC(N)=NN=C(c1ccc(F)cc1)c1ccc(C(F)(F)F)cc1,"inconclusive: 0.651 µM [cytotoxic, full curve, poor fit]"
14,COc1ccc(N2C(=O)CC(NNC(=O)c3cc(C)oc3C)C2=O)cc1 (configuration not stated),inactive
15,COc1cccc(NC(=S)N(Cc2ccc(C)cc2)Cc2ccccn2)c1,"inconclusive: 10.3 µM [cytotoxic, partial curve, poor fit]"
16,COc1ccc(CCNC(=O)COC(=O)COc2ccc(Cl)cc2)cc1OC,"inconclusive: 16.4 µM [rising, partial curve]"
17,CCC(C)(C)NC(=O)c1cc([N+](=O)[O-])ccc1N1CCCCC1,"inconclusive: 20.6 µM [cytotoxic, single point]"
18,CCn1c(SCC(=O)c2[nH]c(C)c(C(C)=O)c2C)nnc1-c1ccccc1,"inconclusive: 1.46 µM [cytotoxic, partial curve]"
19,Cc1cc(C)nc(SCC(=O)Nc2sc3c(c2C#N)CCC(C)C3)n1 (configuration not stated),"inconclusive: 11.6 µM [cytotoxic, partial curve]"
20,COc1ccc(C(=O)NC(=S)NNC(=O)c2ccc(NC(C)=O)cc2)cc1Br,"inconclusive: 2.91 µM [cytotoxic, full curve, poor fit]"
21,CC(C)N(Cc1cn(C)nc1-c1cccc(Cl)c1)CC1CCC(=O)N1 (configuration not stated),"inconclusive: 0.206 µM [cytotoxic, partial curve, poor fit]"
22,Cc1nn(CC(=O)N2CCC(C(N)=O)CC2)c(=O)c2nn(-c3ccccc3)c(C)c12,"inconclusive: 3.66 µM [rising, full curve]"
23,CCCCc1ccc(NC(=O)C(=O)NCCN2CCN(Cc3ccc([N+](=O)[O-])cc3)CC2)cc1,"inconclusive: 23.1 µM [cytotoxic, single point]"

row,Structure (SMILES),Potency
1,COc1ccc(-c2c(-c3cc(OC)cc(OC)c3)n(C)c3ccc(-c4ccc(S(N)(=O)=O)cc4)cc23)cc1,"inconclusive: 13 µM [cytotoxic, partial curve, poor fit]"
2,CCN(CC(=O)Nc1ccc(OC)cc1)C(=O)c1ccc2c(c1)NC(=O)CS2,inactive
3,CCOc1ccc(NC(=O)CN2CCN(C(=O)c3ccco3)CC2)cc1S(=O)(=O)N1CCCC1,"inconclusive: 23.1 µM [cytotoxic, partial curve, poor fit]"
4,c1ccc(-n2ncc3c(N4CCCC4)ncnc32)cc1,"inconclusive: 29.1 µM [cytotoxic, single point]"
5,Cc1nnc(NC(=O)c2ccc(-c3ccc([N+](=O)[O-])cc3)o2)s1,"inconclusive: 29.1 µM [rising, single point]"
6,CCOC(=O)c1cc(S(=O)(=O)N2CCN(c3ccc(C(C)=O)cc3)CC2)[nH]n1,"inconclusive: 29.1 µM [cytotoxic, single point]"
7,COc1cc(C(=O)OCCNC(=O)c2ccccc2)cc(OC)c1OC,"inconclusive: 18.4 µM [cytotoxic, partial curve, poor fit]"
8,COc1ccc(C2(CNC(=O)c3cccc([N+](=O)[O-])c3)CCCCC2)cc1OC,"inconclusive: 6.51 µM [cytotoxic, partial curve]"
9,Cn1c(-c2ccccc2)cnc1SCC(N)=O,"inconclusive: 32.6 µM [cytotoxic, single point]"
10,O=C1C=CN(C2OC(CO)C(O)C2O)C(=O)C1 (configuration not stated),inactive
11,CC(C)(CO)NCc1ccc(Br)cc1,inactive
12,COc1ccc(Oc2ccc(/C=C/C(=O)c3cccc(OC)c3)cc2[N+](=O)[O-])cc1,"inconclusive: 29.1 µM [cytotoxic, single point]"
13,Nc1cc(=O)nc(SCC(=O)Nc2ccc(F)cc2)n1CCc1ccccc1,inactive
14,O=C(Nc1ccccc1)N1CCn2c(nc3ccccc32)C1,active: 23.1 µM
15,CN1CCN(S(=O)(=O)c2ccc(NC(=O)c3ccc(Br)s3)cc2)CC1,inactive
16,CC[C@]12c3[nH]c4ccc(OC)cc4c3CCN1C(=O)C(CC(=O)NCCCN(C)C)C[C@@H]2C(=O)N1CCN(C(=O)C2CC2)CC1 (some centres not stated),"inconclusive: 0.0184 µM [cytotoxic, full curve]"
17,Cc1cc2oc3c(c(=O)c2cc1C)C1(C(=O)N(C)c2ccccc21)N(CCO)C3=O (configuration not stated),inactive
18,Oc1ccc(/C=N/NC(=S)N2CCOCC2)cc1,inactive
19,CCOC(=O)C(C)/C(C)=N/NC(=O)c1cc2ccccc2cc1O (configuration not stated),inactive
20,CC(=O)c1ccc(NC(=O)c2ccc(-c3ccc(Cl)cc3)o2)cc1,inactive
21,CCC(=O)N/C(=N/c1nc(C)cc(C)n1)Nc1cccc(OC)c1,"inconclusive: 7.31 µM [cytotoxic, partial curve, poor fit]"

# Entries above containing a furan ring, fused or not, in the order listed:
row,Structure (SMILES),Potency
23,O=C(NCc1cccnc1)/C(=C/c1ccc(-c2cccc(Cl)c2)o1)S(=O)(=O)c1ccccc1,"inconclusive: 20.6 µM [cytotoxic, partial curve, poor fit]"
9,Cc1nnc(SCC(=O)N2CCN(C(=O)c3ccco3)CC2)n1C,"inconclusive: 23.1 µM [rising, partial curve, poor fit]"
14,COc1ccc(N2C(=O)CC(NNC(=O)c3cc(C)oc3C)C2=O)cc1 (configuration not stated),inactive
3,CCOc1ccc(NC(=O)CN2CCN(C(=O)c3ccco3)CC2)cc1S(=O)(=O)N1CCCC1,"inconclusive: 23.1 µM [cytotoxic, partial curve, poor fit]"
5,Cc1nnc(NC(=O)c2ccc(-c3ccc([N+](=O)[O-])cc3)o2)s1,"inconclusive: 29.1 µM [rising, single point]"
20,CC(=O)c1ccc(NC(=O)c2ccc(-c3ccc(Cl)cc3)o2)cc1,inactive
